Experimental findings from PMC8874583 are described below.

By UniProt entry, the sequences of proteins in these tests, tags left out. Where a name states a change or a piece, a line headed by the entry shows the natural chain unless it says otherwise. Chains listed by the source or under a name are the forms on record and can include a tag or linker.
Flag-MDA5 (porcine MDA5) (A7LCX1, form named): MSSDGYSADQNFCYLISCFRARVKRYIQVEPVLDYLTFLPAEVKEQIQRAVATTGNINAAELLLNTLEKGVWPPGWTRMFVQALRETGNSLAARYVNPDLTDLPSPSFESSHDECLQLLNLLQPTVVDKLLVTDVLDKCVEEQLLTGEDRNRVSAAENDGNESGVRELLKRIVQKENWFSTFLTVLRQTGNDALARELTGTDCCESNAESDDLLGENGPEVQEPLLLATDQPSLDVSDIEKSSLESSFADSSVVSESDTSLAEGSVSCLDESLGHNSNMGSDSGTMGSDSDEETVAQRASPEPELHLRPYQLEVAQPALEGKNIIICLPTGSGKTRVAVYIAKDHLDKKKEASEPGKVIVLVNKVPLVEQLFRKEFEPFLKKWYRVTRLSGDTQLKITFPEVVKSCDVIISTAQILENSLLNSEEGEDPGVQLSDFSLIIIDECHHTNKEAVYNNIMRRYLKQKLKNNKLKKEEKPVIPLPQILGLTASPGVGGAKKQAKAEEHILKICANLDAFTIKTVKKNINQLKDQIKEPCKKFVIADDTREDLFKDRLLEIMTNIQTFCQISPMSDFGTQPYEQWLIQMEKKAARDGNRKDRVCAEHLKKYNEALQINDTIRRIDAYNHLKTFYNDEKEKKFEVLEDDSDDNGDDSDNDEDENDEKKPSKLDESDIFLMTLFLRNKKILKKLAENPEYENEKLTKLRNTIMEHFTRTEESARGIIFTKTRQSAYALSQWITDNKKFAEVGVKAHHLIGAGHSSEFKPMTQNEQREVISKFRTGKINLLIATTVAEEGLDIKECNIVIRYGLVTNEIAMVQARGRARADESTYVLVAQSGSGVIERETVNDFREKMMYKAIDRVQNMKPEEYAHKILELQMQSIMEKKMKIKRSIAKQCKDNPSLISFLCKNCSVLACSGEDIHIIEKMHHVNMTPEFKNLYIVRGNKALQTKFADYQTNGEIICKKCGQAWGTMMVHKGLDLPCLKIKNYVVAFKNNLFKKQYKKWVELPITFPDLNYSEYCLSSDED
UniProt A0A4X1VVC5: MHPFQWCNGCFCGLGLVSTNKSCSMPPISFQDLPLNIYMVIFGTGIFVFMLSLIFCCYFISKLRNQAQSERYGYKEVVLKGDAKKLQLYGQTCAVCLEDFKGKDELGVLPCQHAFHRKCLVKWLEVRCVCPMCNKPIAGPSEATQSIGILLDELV

The assay concerns the target Flag-MDA5 (porcine MDA5) (porcine) (UniProt A7LCX1). As to the kind of experiment: co-IP.

These are yes or no findings as the source states them, for the method shown. Binding seen in cells or lysates may run through a third protein. Some binding calls cover weakened binding; strength is not graded here.

Turning to “HA-RNF122 (porcine E3 ubiquitin ligase RNF122) (from UniProt A0A4X1VVC5 1-155)”, the binding entry is given as “binds”.
